Experimental data: PubChem BioAssay AID1224826 (NIAID, 2016)
The deposit covers about 17,000 reagents; this is a random part of them. About 1,110 of them (6.6%) count as active. 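Active means lowered or raised reporter signal; replicate intensities are raw and not normalised per plate.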 Entries without a mark were called inactive. Reagents against one gene are numbered here. Not all columns of the deposit are shown.

Assay: 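Knock-downs that raise or lower Tnf reporter signal after endotoxin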 (primary screen)
System: RAW264.7 G9 macrophages from mouse bearing reporters for p65 (GFP) and the Tnf promoter (mCherry)
Knock-down reagent: siRNA pool against mouse genes, 100 nM
Timing: 16 h of LPS stimulation, after 2 days of siRNA transfection
Challenge: bacterial lipopolysaccharide (Salmonella minnesota R595), 10 ng/ml
Measurement: 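Nuclear mCherry signal of the Tnf promoter reporter measured by imaging after background removal, scaled to each plate median and turned into robust z-scores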
Scale: Tnf reporter robust z-score: higher = stronger Tnf promoter reporter signal after LPS
Hit rule: 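a well counts as active at a score of -1.3 or below (Tlr4 knock-down control median) or above 3 (raised signal); controls and wells holding fewer than 50 cells are excluded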
Calls: active = Tnf reporter clearly lowered or raised; inactive = no clear change in Tnf reporter

With knock-down of Dhrs7 the results were Tnf reporter robust z-score 0.16; fewer than 50 cells in well enough cells in well.
Against Atf7ip #1, the entry reads Tnf reporter robust z-score -0.24; fewer than 50 cells in well enough cells in well.
For Atf7ip #2, the values are Tnf reporter robust z-score -0.08; fewer than 50 cells in well enough cells in well.
Depletion of Purg resulted in: Tnf reporter robust z-score -0.14; fewer than 50 cells in well enough cells in well.
Knock-down of Neurog1 gave: Tnf reporter robust z-score 0.17; fewer than 50 cells in well enough cells in well.
Exosc1 showed Tnf reporter robust z-score -0.54; fewer than 50 cells in well enough cells in well.

Part of the list above, limited to “fewer than 50 cells in well”:
Atf7ip #2: enough cells in well
Purg: enough cells in well

Continued:
Knock-down of Ncam2 resulted in: Tnf reporter robust z-score -0.25; fewer than 50 cells in well enough cells in well.
Depletion of Cd109 resulted in: Tnf reporter robust z-score 0.01; fewer than 50 cells in well enough cells in well.
Btd gave Tnf reporter robust z-score -0.64; fewer than 50 cells in well enough cells in well.
Depletion of Pantr1 gave: fewer than 50 cells in well fewer than 50 cells per well; well left out of calls.
Ubl5 gave Tnf reporter robust z-score -0.43; fewer than 50 cells in well enough cells in well.
Cyp2j5 gave Tnf reporter robust z-score 0.37; fewer than 50 cells in well enough cells in well.
